# This is one part of the list. The data scatter; read single values as rough.
# Experiments:
# [1] = compound: ClCC(=O)N[C@@H]1CCCc2ccccc12; assay: log2 mean competition ratio of IA-DTB cysteine labelling (DMSO/compound) (log2 ratio); higher = stronger cysteine engagement by compound; conditions: treatment time: 4 h, cell line lysate: HEK293T
# Experimental: (§1)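 IA-DTB competitive cysteine chemoproteomics in HEK293T RIPA lysate. Lysates were treated with compound 29 or 30 at 50 or 200 µM for 4 h, then IA-DTB (500 µM, 1 h), trypsin-digested, NeutrAvidin-enriched and analysed by diaPASEF. Competition ratio = intensity DMSO / intensity compound (n=4 treated, n=64 DMSO); binding: mean log2 CR ≥ 1 and p ≤ 0.05 plus QC filters. Target is the cysteine site.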
# [2] = compound: ClCC(=O)N[C@H]1CCCc2ccccc12; assay: as above; conditions: treatment time: 4 h, cell line lysate: HEK293T
# Experimental: as §1
Target,log2 mean competition ratio ([1]; 50 µM),log2 mean competition ratio ([1]; 200 µM),log2 mean competition ratio ([2]; 50 µM),log2 mean competition ratio ([2]; 200 µM)
ATPSCKMT C67 (UniProt Q6P4H8),-0.105,-0.0716,-0.577,-0.0791
BAP18 C66 (UniProt Q8IXM2),-0.157,-0.174,-0.0689,-0.136
ATP11B C629 (UniProt Q9Y2G3),-0.228,0.0315,0.0842,0.133
ATXN10 C382 (UniProt Q9UBB4),0.331,0.314,0.655,0.324
ATP11C C200,-0.237,-0.161,-0.324,-0.215
ASRGL1 C97 (UniProt Q7L266),-0.187,-0.207,-0.06,-0.249
ASPM C520 (UniProt Q8IZT6),0.253,0.106,0.243,-0.0461
BAZ1B C1420 (UniProt Q9UIG0),0.0201,0.53,0.0685,0.625
BIRC6 C1319,0.382,0.0286,-0.132,-0.0455
BCORL1 C1460 (UniProt Q5H9F3),0.0233,-0.11,-0.0549,-0.17
ATAD2 C484 (UniProt Q6PL18),0.0502,0.361,-0.0257,0.111
BCR C753 (UniProt P11274),-0.0459,0.141,-0.0309,0.091
ATG2B C1750 (UniProt Q96BY7),-0.0818,0.203,-0.0816,-0.0203
ATP9B C122 (UniProt O43861),-0.151,-0.182,0.306,0.0133
ATPAF2 C141 (UniProt Q8N5M1),-0.0935,-0.0583,-0.251,-0.019
BBS7 C167 (UniProt Q8IWZ6),0.0149,0.215,-0.103,0.0262
ATPAF1 C321 (UniProt Q5TC12),0.0123,-0.0797,-0.0722,-0.246
BAZ1A C586 (UniProt Q9NRL2),-0.144,-0.05,0.091,0.125
ATAD2B C437 (UniProt Q9ULI0),0.29,0.847,0.168,0.393
ASPM C441 (UniProt Q8IZT6),0.0138,0.372,0.171,0.168
BMS1 C734 (UniProt Q14692),0.0391,0.0639,-0.0241,0.0522
BCKDHB C235 (UniProt P21953),-0.142,-0.4,-0.412,-0.466
BCL2L12 C266 (UniProt Q9HB09),0.119,-0.0413,0.267,-0.106
BACH1 C557 (UniProt O14867),-0.182,0.368,-0.259,0.0653

Target,log2 mean competition ratio ([1]; 50 µM),log2 mean competition ratio ([1]; 200 µM),log2 mean competition ratio ([2]; 50 µM),log2 mean competition ratio ([2]; 200 µM)
BACH1 C184 (UniProt O14867),-0.131,0.0968,0.112,0.265
BCOR C1311 (UniProt Q6W2J9),-0.218,0.0247,-0.302,-0.0792
ATIC C101 (UniProt P31939),0.0448,-0.0235,-0.462,0.0124
ATG7 C406 (UniProt O95352),-0.286,0.395,-0.357,0.516
AURKA C8 (UniProt O14965),0.0584,-0.0514,0.133,0.261
BDP1 C2394 (UniProt A6H8Y1),-0.274,-0.0681,-0.184,-0.0836
BCKDHA C197 (UniProt P12694),-0.142,0.236,-0.0388,0.264
ASRGL1 C176 (UniProt Q7L266),-0.0702,0.141,-0.356,0.13
BAG5 C360 (UniProt Q9UL15),0.16,-0.203,0.0725,-0.306
ATP5F1E;ATP5F1EP2 C19;(C19),0.0392,-0.368,0.755,0.00592
ATXN2 C301,0.00981,0.222,-0.507,0.049
BECN1 C353 (UniProt Q14457),-0.00884,-0.298,-0.0657,-0.178
BACH1 C435 (UniProt O14867),0.0144,0.0715,-0.226,0.316
ATP13A2 C401 (UniProt Q9NQ11),-0.0953,0.232,-0.407,-0.034
ATM C2112 (UniProt Q13315),-0.101,0.0632,-0.259,0.115
ASPM C3177 (UniProt Q8IZT6),0.107,-0.146,-0.0672,-0.0199
ATR C1343 (UniProt Q13535),0.0335,0.142,-0.133,0.0429
ATAD5 C556 (UniProt Q96QE3),-0.0469,0.219,0.0134,0.165
BAG5 C191 (UniProt Q9UL15),0.491,0.0336,2.4e-05,-0.0299
BMS1 C556 (UniProt Q14692),-0.0559,-0.0645,-0.0546,0.0705
BAZ1B C953 (UniProt Q9UIG0),0.202,0.277,0.0207,0.123
BIRC6 C1293,0.0339,-0.064,0.504,-0.147
ATPAF2 C276 (UniProt Q8N5M1),-0.0194,-0.118,0.413,-0.356
ATP6V1G1 C69 (UniProt O75348),-0.0351,-0.109,-0.0379,-0.147

Target,log2 mean competition ratio ([1]; 50 µM),log2 mean competition ratio ([1]; 200 µM),log2 mean competition ratio ([2]; 50 µM),log2 mean competition ratio ([2]; 200 µM)
ATAD3B C492 (UniProt Q5T9A4),0.182,0.376,-0.461,-0.0215
ATP6V1A C138 (UniProt P38606),0.0925,0.435,0.212,0.893
BCL9 C125 (UniProt O00512),-0.371,0.197,-0.529,0.0195
ATP13A3 C920 (UniProt Q9H7F0),0.258,0.247,-0.003,0.23
B4GALT7 C214 (UniProt Q9UBV7),0.261,-0.104,-0.139,-0.0773
BCDIN3D C97 (UniProt Q7Z5W3),0.0711,0.362,-0.287,0.0534
ATAD2 C1388 (UniProt Q6PL18),-0.305,0.397,-0.0945,0.847
BCL2L11 C110 (UniProt O43521),-0.235,0.0564,-0.135,-0.0348
ATP13A1 C345 (UniProt Q9HD20),0.156,-0.643,0.655,-0.259
AVL9 C119 (UniProt Q8NBF6),-0.0494,-0.059,0.297,0.05
BIRC6 C3404,-0.182,0.0901,-0.0293,0.0269
ATG3 C182 (UniProt Q9NT62),-0.00371,0.126,-0.00675,0.105
BACH2 C370 (UniProt Q9BYV9),-0.0111,0.197,0.0108,0.316
ATG9A C197 (UniProt Q7Z3C6),0.0201,-0.398,0.818,-0.392
ATP2B4 C632 (UniProt P23634),-0.141,-0.0653,0.0584,0.113
BACH1 C224 (UniProt O14867),0.0104,0.114,-0.0479,0.0666
ATP6V1H C312 (UniProt Q9UI12),0.0548,0.394,0.536,0.222
BCKDHB C299 (UniProt P21953),-0.327,-0.211,-0.541,-0.0724
BCAS3 C479 (UniProt Q9H6U6),0.124,-0.151,0.0157,-0.268
ATP2B1 C60 (UniProt P20020),0.0638,0.0843,0.0544,0.0758
ATF7IP C955 (UniProt Q6VMQ6),-0.175,0.108,0.0382,0.159
ATAD5 C433 (UniProt Q96QE3),0.163,-0.0919,0.198,-0.169
ATG2B C243 (UniProt Q96BY7),0.118,0.127,-0.289,0.0152
BLZF1 C329 (UniProt Q9H2G9),0.14,0.206,-0.0139,0.0588

# Two entries from above, tab-delimited.
Target	log2 mean competition ratio ([1]; 50 µM)	log2 mean competition ratio ([1]; 200 µM)	log2 mean competition ratio ([2]; 50 µM)	log2 mean competition ratio ([2]; 200 µM)
BCKDHB C299 (UniProt P21953)	-0.327	-0.211	-0.541	-0.0724
BCAS3 C479 (UniProt Q9H6U6)	0.124	-0.151	0.0157	-0.268

# The results go on:

Target,log2 mean competition ratio ([1]; 50 µM),log2 mean competition ratio ([1]; 200 µM),log2 mean competition ratio ([2]; 50 µM),log2 mean competition ratio ([2]; 200 µM)
BLOC1S5 C117 (UniProt Q8TDH9),-0.0785,0.249,-0.00724,0.311
BLOC1S5 C12 (UniProt Q8TDH9),-0.132,-0.251,0.252,-0.124
BLVRA C204,-0.251,-0.0875,-0.0663,-0.0969
ATP6V1H C73 (UniProt Q9UI12),0.0554,0.28,0.409,0.245
ATP6V1A C394 (UniProt P38606),-0.138,-0.198,-0.0396,0.024
ATM C2323 (UniProt Q13315),0.246,-0.0682,0.0423,-0.18
BAHD1 C598 (UniProt Q8TBE0),0.121,0.0397,-0.652,0.0224
ATP2B4 C24 (UniProt P23634),-0.144,-0.394,0.0161,0.0319
BICD2 C437 (UniProt Q8TD16),-0.39,0.437,-0.203,0.104
BDP1 C689 (UniProt A6H8Y1),-0.085,-0.254,0.414,0.0533
ATG4A C117 (UniProt Q8WYN0),0.0484,0.0481,-0.31,-0.0811
AZI2 C332 (UniProt Q9H6S1),0.0983,0.192,0.0273,0.478
BAG1 C213 (UniProt Q99933),-0.0997,-0.00633,0.00245,0.426
BABAM2 C34 (UniProt Q9NXR7),-0.0367,0.0906,-0.289,0.0694
ATM C1736 (UniProt Q13315),-0.0681,-0.00532,-0.147,0.0757
ATRIP C238 (UniProt Q8WXE1),0.00799,0.132,-0.29,0.225
ATP2C1 C669 (UniProt P98194),-0.271,0.15,-0.323,0.105
BAIAP2L1 C229 (UniProt Q9UHR4),-0.366,0.0524,-0.711,0.0776
ATP5MF C7 (UniProt P56134),-0.265,-0.202,0.145,-0.0818
BCR C1074 (UniProt P11274),-0.266,0.17,0.145,0.279
ATAD1 C137 (UniProt Q8NBU5),0.462,0.14,0.613,0.119
ATP5PO C141 (UniProt P48047),-0.0429,-0.0458,-0.261,-0.315
BLM C607 (UniProt P54132),0.0698,-0.0511,0.743,-0.0061
